The other results are listed elsewhere or left out.
system: T1, CTL2-GFP (C. trachomatis L2/434/Bu, GFP-expressing); set-up: species or system HeLa; Intracellular C. trachomatis growth in HeLa cells, bulk GFP fluorescence relative to DMSO; conditions: bulk GFP, single well; 28.5 h, 10 µM; inhibitor
T1 construct: L2/434/Bu, GFP-expressing

Structure (SMILES) | % of control remaining
Clc1ccc(SCCN2CCOCC2)cc1 [CBK265055G] | 113.934%
Cc1ccc2c(c1)C(=O)NCC1(CCN(C(=O)c3ccco3)CC1)O2 [CBK282894] | 125.541%
COc1cc(NC(=O)N2CCNC(=O)C2)cc(OC)c1OC [CBK155875] | 91.9628%
CC(C)n1c(=O)n(CC(=O)N2CCCCCC2)c2cccnc21 [CBK283527] | 140.407%
Cc1ccc2[nH]c3c(c2c1)CCNC31CCN(C(=O)Nc2c(C)noc2C)CC1 [CBK047071] | 127.496%
CCc1ccc2c(c1)C(CCNC(=O)CCc1ccsc1)C(=O)N2 (centres unmarked) [CBK305063] | 101.593%
O=C(O)CC(Cc1ccccc1)c1ccc(Cl)cc1 (centres unmarked) [CBK270231] | 140.513%
COCCn1c(SCc2cn3ccccc3c2C#N)nc(C)c1C [CBK306282] | 97.564%
O=c1[nH]cc([C@H]2C[C@@H](O)[C@@H](CO)O2)c(=O)[nH]1 [CBK201158] | 139.685%
O=C1NN(c2ccc(Br)cc2)C(=O)/C1=C\c1ccc(-c2ccc3c(c2)C(=O)NC3=O)o1 [CBK262968] | 111.556%
OC(CN1CCC(O)(c2ccc(C(F)(F)F)cc2)CC1)c1ccccc1 (centres unmarked) [CBK286323] | 128.643%
Cc1cc(NC(=O)CN2CCC(CNc3ccccn3)C2)on1 (centres unmarked) [CBK305760] | 130.871%
CN1CCN(C(=O)c2cc(C(C)(C)C)nn2Cc2ccc(Cl)cc2Cl)CC1 [CBK107285] | 121.255%
CC1(C)CN=C(N2CCN(c3c4c(c(C#N)c5nc6ccccc6n35)CCC4)CC2)S1 [CBK263113] | 100%
CN1CCN(NC(=O)C2C3C=CC(C3)C2C(=O)O)CC1 (centres unmarked) [CBK286915] | 120.467%
Cc1cc(NS(=O)(=O)c2ccc(N3CCOCC3)nc2)n(C)n1 [CBK067253] | 105.147%
O=C(O)c1cc(S(=O)(=O)NCc2ccc(Cl)cc2Cl)ccc1O [CBK296924] | 142.244%
CCC(NC(=O)C(C)Cn1cccn1)c1ccc(F)cc1 (centres unmarked) [CBK283210] | 136.081%
c1ncc(N2CCCC2)nc1OC1CCOC1 (centres unmarked) [CBK115893] | 106.681%
O=C(c1ccc(-c2nccnc2NCc2ccc(C(F)(F)F)cc2)cc1)N1CCOCC1 [CBK036931] | 173.191%
Oc1nc(CSc2nnc(-c3ccncc3)n2-c2ccccc2)nc2ccccc12 [CBK264851] | 126.671%
OCCOc1cccnc1OCCN1CCCC1 [CBK039174] | 114.375%
Cc1cc2ccccc2n1CCCNC(=O)c1ccc(=O)n(C)c1 [CBK282982] | 103.678%
O=S1(=O)N=c2cc3c(c4cccc1c24)=Nc1ccccc1N3 [CBK020253] | 132.713%
O=C(NC1CCCCC1)NS(=O)(=O)c1ccc(CCNC(=O)c2cnc3ccccc3n2)cc1 [CBK013051] | 135.738%

Structures shown so far that contain a carbonyl joined to an NH by a bond outside any ring:
Structure (SMILES) | % of control remaining
COc1cc(NC(=O)N2CCNC(=O)C2)cc(OC)c1OC [CBK155875] | 91.9628%
Cc1ccc2[nH]c3c(c2c1)CCNC31CCN(C(=O)Nc2c(C)noc2C)CC1 [CBK047071] | 127.496%
CCc1ccc2c(c1)C(CCNC(=O)CCc1ccsc1)C(=O)N2 (centres unmarked) [CBK305063] | 101.593%
Cc1cc(NC(=O)CN2CCC(CNc3ccccn3)C2)on1 (centres unmarked) [CBK305760] | 130.871%
CN1CCN(NC(=O)C2C3C=CC(C3)C2C(=O)O)CC1 (centres unmarked) [CBK286915] | 120.467%
CCC(NC(=O)C(C)Cn1cccn1)c1ccc(F)cc1 (centres unmarked) [CBK283210] | 136.081%
Cc1cc2ccccc2n1CCCNC(=O)c1ccc(=O)n(C)c1 [CBK282982] | 103.678%
O=C(NC1CCCCC1)NS(=O)(=O)c1ccc(CCNC(=O)c2cnc3ccccc3n2)cc1 [CBK013051] | 135.738%

(cont.)

Structure (SMILES) | % of control remaining
Cc1ccc(NC(=O)C2CN(S(=O)(=O)c3ccccc3)CCN2S(=O)(=O)c2ccccc2)c(C)c1 (centres unmarked) [CBK262693] | 130.333%
CN1CCN(C(=O)c2cc(Br)cnc2NCc2cccnc2)CC1 [CBK076347] | 112.033%
COC(=O)C1=C(C)N(CCc2ccccc2)C(=O)C1(NC(=O)c1ccccc1)C(F)(F)F (centres unmarked) [CBK267477] | 153.951%
OCCNc1nc2cc(Cl)ccc2[nH]1 [CBK262295] | 114.429%
Cc1cc(C)n(CC(C)NC(=O)C(c2ccccc2)N2CCCC2)n1 (centres unmarked) [CBK281645] | 145.875%
c1cncc(-c2csc(Nc3nc4cc5c(cc4s3)OCO5)n2)c1 [CBK287490] | 144.461%
COc1ccc(C(C)C)cc1-c1cnc2[nH]c(=O)n([C@H](C)c3ccccc3)c2n1 [CBK064181] | 78.2345%
COc1cccc(CN2CCCC(NC(=O)c3csc(C(C)=O)c3)C2)c1 (centres unmarked) [CBK307297] | 103.673%
COc1ccc2c(c1)c(C)c(C(=O)N1CCCCC1CN(C)C)n2C (centres unmarked) [CBK282190] | 142.896%
Cn1cncc1C(=O)N1Cc2ccccc2C1 [CBK200329] | 108.33%
CC(C)NC(=O)N1Cc2nc[nH]c2C[C@H]1c1nc(-c2ccccc2)no1 [CBK288996] | 145.167%
c1ccc(-c2nnc(COc3ccc(-c4cnc5ccccc5n4)cc3)o2)cc1 [CBK269707] | 119.94%
NC(=O)C1CCN(C2=NC(=O)/C(=C/c3cn(-c4ccccc4)nc3-c3ccc(F)cc3)S2)CC1 [CBK265175] | 130.868%
CC1(C)Cc2c(ccc3ccccc23)C(NCC(=O)O)=N1 [CBK262559] | 111.918%
Cc1cccc2c3c([nH]c12)CCN(C(=O)C(C)N1CCOCC1)C3 (centres unmarked) [CBK281600] | 141.75%
Cc1ccc(C(=O)Cn2c3ccccc3n3ncnc23)cc1 [CBK263081] | 106.886%
CCC(C)C(NC(=O)C1CCN(S(=O)(=O)c2ccc(OC)c(OC)c2)CC1)C(=O)O (centres unmarked) [CBK297140] | 102.419%
O=C(NC(N1CCOCC1)C(Cl)(Cl)Cl)c1ccc(Cl)cc1 (centres unmarked) [CBK261084] | 107.474%
O=C(O)CC1OC(=O)c2cc3c(cc21)C(=O)OC3CC(=O)O (centres unmarked) [CBK262928] | 100%
O=S(=O)(Nc1ccc(-c2csnn2)cc1)c1ccc(F)cc1 [CBK050482] | 103.368%
Cn1nccc1C(=O)N1CCCC(c2cc3cccnc3[nH]2)C1 (centres unmarked) [CBK284929] | 125.684%
Cc1ccc(S(=O)(=O)Nc2ccc(Nc3cc(-c4cccc5oc6ccccc6c45)ncn3)cc2)cc1 [CBK090977] | 187.351%
CC(C)Nc1nc2cc(Cl)c(Cl)cc2nc1Sc1cccc(O)c1 [CBK093732] | 37.6945%
FC(F)(F)c1ccc(CNc2nccnc2-c2cccs2)cc1 [CBK036834] | 148.281%
CCN1CC2(CCN(CCCN(C)C)CC2)c2ccccc21 [CBK136988] | 105.609%

In a second layout: entries from further up.
Structure (SMILES),% of control remaining
Cc1ccc2[nH]c3c(c2c1)CCNC31CCN(C(=O)Nc2c(C)noc2C)CC1 [CBK047071],127.496%
O=S1(=O)N=c2cc3c(c4cccc1c24)=Nc1ccccc1N3 [CBK020253],132.713%

— article PMC12040169 (PLOS Biology, 2025)
